Laboratory results reported in the supplement of paper PMC7661543.
The effect of the compound repeats well; differences between the knockouts mostly do not.

Tested on: BT-20
Assay: relative cell number vs DMSO control (72 h) (% of DMSO); higher = less growth inhibition (more cells)
Method: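 QMAP-Seq: a pool of 5 breast cancer cell lines (ZR-75-1, SKBR3, HCC-38, MDA-MB-231, BT-20), each carrying 12 doxycycline-inducible Cas9 sgRNA perturbations (11 knockouts plus non-targeting sgNT), was treated with compounds for 72 h at four 10-fold doses (10 nM-10 uM or 1 nM-1 uM range). Barcodes were amplified and sequenced, and cell number was interpolated from 293T spike-in standard curves. The result is expressed as % of the median of DMSO wells. Two biological replicates.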

CC/C(=C(\c1ccc(O)cc1)c1ccc(OCCN(C)C)cc1)c1ccccc1 [4-Hydroxytamoxifen]
Conditions	relative cell number
sgRNA knockout: sgATF3, 10 nM	80.7
sgRNA knockout: sgATF3, 100 nM	98.9
sgRNA knockout: sgATF3, 1000 nM	98.9
sgRNA knockout: sgATF3, 10000 nM	72.7
sgRNA knockout: sgATF4, 10 nM	101
sgRNA knockout: sgATF4, 100 nM	94.5
sgRNA knockout: sgATF4, 1000 nM	99.7
sgRNA knockout: sgATF4, 10000 nM	87.2
sgRNA knockout: sgATF6, 10 nM	96.2
sgRNA knockout: sgATF6, 100 nM	82.47
sgRNA knockout: sgATF6, 1000 nM	96.1
sgRNA knockout: sgATF6, 10000 nM	84.1
sgRNA knockout: sgATG7, 10 nM	103.4
sgRNA knockout: sgATG7, 100 nM	82.7
sgRNA knockout: sgATG7, 1000 nM	81.9
sgRNA knockout: sgATG7, 10000 nM	77.8
sgRNA knockout: sgERN1, 10 nM	109
sgRNA knockout: sgERN1, 100 nM	89.7
sgRNA knockout: sgERN1, 1000 nM	105
sgRNA knockout: sgERN1, 10000 nM	80.5
sgRNA knockout: sgHSF1, 10 nM	94.8
sgRNA knockout: sgHSF1, 100 nM	87.9
sgRNA knockout: sgHSF1, 1000 nM	96.7
sgRNA knockout: sgHSF1, 10000 nM	86.3
sgRNA knockout: sgHSF2, 10 nM	91.4
sgRNA knockout: sgHSF2, 100 nM	79.7
sgRNA knockout: sgHSF2, 1000 nM	92.8
sgRNA knockout: sgHSF2, 10000 nM	73.6
sgRNA knockout: sgKEAP1, 10 nM	99.7
sgRNA knockout: sgKEAP1, 100 nM	84.1
sgRNA knockout: sgKEAP1, 1000 nM	98.9
sgRNA knockout: sgKEAP1, 10000 nM	87.2
sgRNA knockout: sgNFE2L2, 10 nM	92.7
sgRNA knockout: sgNFE2L2, 100 nM	90.8
sgRNA knockout: sgNFE2L2, 1000 nM	98
sgRNA knockout: sgNFE2L2, 10000 nM	93.1
sgRNA knockout: sgSLC35F2, 10 nM	84.6
sgRNA knockout: sgSLC35F2, 100 nM	90.7
sgRNA knockout: sgSLC35F2, 1000 nM	89.5
sgRNA knockout: sgSLC35F2, 10000 nM	77.4
sgRNA knockout: sgXBP1, 10 nM	99.8
sgRNA knockout: sgXBP1, 100 nM	92.6
sgRNA knockout: sgXBP1, 1000 nM	97.5
sgRNA knockout: sgXBP1, 10000 nM	81.4

S=c1nc[nH]c2nc[nH]c12 [6-Mercaptopurine]
Conditions	relative cell number
sgRNA knockout: sgATF3, 10 nM	108
sgRNA knockout: sgATF3, 100 nM	75.3
sgRNA knockout: sgATF3, 1000 nM	91.3
sgRNA knockout: sgATF3, 10000 nM	66.2
sgRNA knockout: sgATF4, 10 nM	99.1
sgRNA knockout: sgATF4, 100 nM	80.1
sgRNA knockout: sgATF4, 1000 nM	83.6
sgRNA knockout: sgATF4, 10000 nM	66.6
sgRNA knockout: sgATF6, 10 nM	90.8
sgRNA knockout: sgATF6, 100 nM	93.2
sgRNA knockout: sgATF6, 1000 nM	95
sgRNA knockout: sgATF6, 10000 nM	76.8
sgRNA knockout: sgATG7, 10 nM	104
sgRNA knockout: sgATG7, 100 nM	85.3
sgRNA knockout: sgATG7, 1000 nM	95.9
sgRNA knockout: sgATG7, 10000 nM	68
sgRNA knockout: sgERN1, 10 nM	108
sgRNA knockout: sgERN1, 100 nM	89.8
sgRNA knockout: sgERN1, 1000 nM	101
sgRNA knockout: sgERN1, 10000 nM	68
sgRNA knockout: sgHSF1, 10 nM	106
sgRNA knockout: sgHSF1, 100 nM	93
sgRNA knockout: sgHSF1, 1000 nM	109
sgRNA knockout: sgHSF1, 10000 nM	72.8
sgRNA knockout: sgHSF2, 10 nM	103
sgRNA knockout: sgHSF2, 100 nM	80.7
sgRNA knockout: sgHSF2, 1000 nM	85.2
sgRNA knockout: sgHSF2, 10000 nM	69.4
sgRNA knockout: sgKEAP1, 10 nM	86.3
sgRNA knockout: sgKEAP1, 100 nM	91.9
sgRNA knockout: sgKEAP1, 1000 nM	80.7
sgRNA knockout: sgKEAP1, 10000 nM	68.5
sgRNA knockout: sgNFE2L2, 10 nM	85.2
sgRNA knockout: sgNFE2L2, 100 nM	77.3
sgRNA knockout: sgNFE2L2, 1000 nM	92.9
sgRNA knockout: sgNFE2L2, 10000 nM	79.3
sgRNA knockout: sgSLC35F2, 10 nM	97.3
sgRNA knockout: sgSLC35F2, 100 nM	93.4
sgRNA knockout: sgSLC35F2, 1000 nM	88.1
sgRNA knockout: sgSLC35F2, 10000 nM	74.2
sgRNA knockout: sgXBP1, 10 nM	102
sgRNA knockout: sgXBP1, 100 nM	87.8
sgRNA knockout: sgXBP1, 1000 nM	96
sgRNA knockout: sgXBP1, 10000 nM	78.8

COc1cc(CCc2cc(NC(=O)c3ccc(N4CC(C)NC(C)C4)cc3)n[nH]2)cc(OC)c1 (configuration not stated) [AZD4547]
Conditions	relative cell number
sgRNA knockout: sgATF3, 10 nM	81.7
sgRNA knockout: sgATF3, 100 nM	85.8
sgRNA knockout: sgATF3, 1000 nM	96.6
sgRNA knockout: sgATF3, 10000 nM	60.5
sgRNA knockout: sgATF4, 10 nM	84.538
sgRNA knockout: sgATF4, 100 nM	95.1
sgRNA knockout: sgATF4, 1000 nM	106
sgRNA knockout: sgATF4, 10000 nM	46.2
sgRNA knockout: sgATF6, 10 nM	75.65
sgRNA knockout: sgATF6, 100 nM	99.1
sgRNA knockout: sgATF6, 1000 nM	98.8
sgRNA knockout: sgATF6, 10000 nM	60.9
sgRNA knockout: sgATG7, 10 nM	78.7
sgRNA knockout: sgATG7, 100 nM	91.8
sgRNA knockout: sgATG7, 1000 nM	97.1
sgRNA knockout: sgATG7, 10000 nM	53.9
sgRNA knockout: sgERN1, 10 nM	79.8
sgRNA knockout: sgERN1, 100 nM	79.8
sgRNA knockout: sgERN1, 1000 nM	92.3
sgRNA knockout: sgERN1, 10000 nM	52.8
sgRNA knockout: sgHSF1, 10 nM	80.4
sgRNA knockout: sgHSF1, 100 nM	83
sgRNA knockout: sgHSF1, 1000 nM	89.7
sgRNA knockout: sgHSF1, 10000 nM	55.8
sgRNA knockout: sgHSF2, 10 nM	90.4
sgRNA knockout: sgHSF2, 100 nM	80.8
sgRNA knockout: sgHSF2, 1000 nM	92.7
sgRNA knockout: sgHSF2, 10000 nM	74.6
sgRNA knockout: sgKEAP1, 10 nM	78.9
sgRNA knockout: sgKEAP1, 100 nM	85.9
sgRNA knockout: sgKEAP1, 1000 nM	90.1
sgRNA knockout: sgKEAP1, 10000 nM	60.4
sgRNA knockout: sgNFE2L2, 10 nM	77.6
sgRNA knockout: sgNFE2L2, 100 nM	85.8
sgRNA knockout: sgNFE2L2, 1000 nM	101
sgRNA knockout: sgNFE2L2, 10000 nM	47.1
sgRNA knockout: sgSLC35F2, 10 nM	88.4
sgRNA knockout: sgSLC35F2, 100 nM	92.4
sgRNA knockout: sgSLC35F2, 1000 nM	101
sgRNA knockout: sgSLC35F2, 10000 nM	55
sgRNA knockout: sgXBP1, 10 nM	84.7
sgRNA knockout: sgXBP1, 100 nM	76.5
sgRNA knockout: sgXBP1, 1000 nM	103
sgRNA knockout: sgXBP1, 10000 nM	71.6
